# Screening data, single-dose tests

Measurements from “University of Dundee, Small-Polar-MMV Screening Library” (2021), ChEMBL document CHEMBL3988442.

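Whole-parasite assay of Trypanosoma brucei over 72 hours; the read-out is not stated. Concentration: 30 µM. Direction is inferred from retests: higher values go with stronger inhibition. Values scatter widely below zero; nearly all retest evidence comes from the higher of the two concentrations used. About 64,000 compounds were tested under these conditions; 1.5% (about 940) showed 50% or more at least once.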

Values are the deposited “Percent Effect”, in %.
How 0% and 100% were set is not recorded. Most values in the screen are low, and negative values occur.
Compounds were drawn at random from those tested, without regard to their results.

- OCCn1cc(CN2CCN(CCOc3ccccc3F)CC2)cn1 : -48.27%
- CCn1c(CN(C)C)nnc1C1CCN(Cc2ccncc2)CC1 : -33.32%
- CCOCC(O)CN1CCN(C(=O)Cc2ccc3c(c2)CCC3)CC1 (stereo not drawn) : -40.99%
- CN1CCN(C)C2(CCN(Cc3ccc(C4CCCCO4)o3)CC2)C1 (stereo not drawn) : 0.3182%
- O[C@@H]1C[C@@H](c2nc(-c3ccc(F)cc3)no2)N(C2CCOCC2)C1 : -7.576%
- Cc1nc2cc(C3CCN(C(=O)c4ccccn4)CC3)nn2c(O)c1C : -21.76%
- O=C(O)c1ccnc(-c2ccnc(N3CCC4(CCO4)CC3)n2)c1 : -11.56%
- CCS(=O)(=O)N1CC(=O)N(Cc2ccccc2OC)CC(O)C1 (stereo not drawn) : -2.095%
- Cc1ccc(C(=O)N2CCCC3(C2)C(=O)N(C)c2ccccc23)c(=O)[nH]1 (stereo not drawn) : 15.56%
- COCC(=O)N1CCN(Cc2cc(F)cc(Br)c2)CC1 : -3.778%
- CCN(CC)c1ncccc1CNC(=O)c1cc2nc(C)cc(C)n2n1 : -14.71%
- CC(C)(CO)NCc1nn(Cc2ccccc2)nc1-c1ccccc1 : -25.1%
- Cc1ccc(CC(=O)NC(C)C(=O)N2CCS(=O)(=O)CC2)s1 (stereo not drawn) : -40.81%
- Cn1ccc(CN2CCC(OCc3ccccc3)CC2)cc1=O : -39.29%
- CC(c1ccccc1)N(C)CC(=O)NCCC#N (stereo not drawn) : -39.45%
- OC[C@@H]1CCCN1Cc1cn(C2CCN(C3CCCC3)CC2)nn1 : -3.438%
- CN(C)c1ccc(-c2nnc([C@H]3CCN(C4CCCCC4)C3)o2)cc1 : -4.23%
- COc1ncc(C)cc1NC(=O)COCC(F)(F)F : -26.56%
- CCN(CC(=O)NC(C)C)S(=O)(=O)N1CCCCC1C (stereo not drawn) : -20.45%
- CC1CCCCN1CCN(C)C(=O)c1cc(CN2CCC(O)CC2)on1 (stereo not drawn) : -9.907%
- COc1cc(N(C)CCC(O)c2ccccc2)ncn1 (stereo not drawn) : -114.6%
- Cc1ccc(S(=O)(=O)N(CC(N)=O)CC(C)C)cc1C : 3.742%
- CN(C(=O)CN1CCCC1c1cnn(C)c1)C(C)(C)C#N (stereo not drawn) : -36.49%
- [H][C@@]12CCN(Cc3cc(C)on3)C[C@@]1([H])O[C@@H](c1nc(C)cs1)C2 : -97.44%
- O=C(NCC1Cn2nnc(-c3ccsc3)c2CO1)N1CCCC1 (stereo not drawn) : -46.34%
- CC(C)C(C)N(C(=O)c1cc2c([nH]c1=O)CCCC2=O)C1CC1 (stereo not drawn) : -23.69%
- CN(CC(F)(F)F)C(=O)CNC(=O)N1CCCC(C(F)(F)F)C1 (stereo not drawn) : -155.4%
- Cc1cnc(CN(Cc2ccccc2)CC(O)c2cccs2)cn1 (stereo not drawn) : -29.85%
- CCOC(C)c1noc(CN(C)C(=O)c2ccncc2)n1 (stereo not drawn) : -8.457%